Structures can show the parent of a compound that is named as a salt. The list shows a part of the results. This data set is noisy: repeats of one test often differ as much as different tests do.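 The human kidney-derived cells carry a stably integrated construct of eight TEAD-binding elements driving luciferase, read by luminescence in a drug-repurposing library screen. A compound counts as a hit when its signal is more than five robust Z scores above the plate mean.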
System: HEK293A TEAD-LUC reporter
Test: TEAD-luciferase reporter activity (YAP activation), robust Z score vs plate; higher = stronger YAP/TEAD activation
Settings: 24 h

Row | Compound | TEAD-luciferase reporter activity (compound concentration: 200 nM) | TEAD-luciferase reporter activity (compound concentration: 2 uM) | TEAD-luciferase reporter activity (compound concentration: 10 uM)
1 | CC1CCCN(CC(C)NC(=O)c2n[nH]c3ccccc23)C1 (centres undefined) | inactive: -1.14 | inactive: -1.95 | inactive: 4.98
2 | Cc1cccc(NS(=O)(=O)c2ccc(Cl)c(C(=O)N3CCN(CCN4CCCC4)CC3)c2)c1 | inactive: 2.36 | inactive: -1.91 | inactive: 0.825
3 | CCCc1nc2c(n1Cc1ccc(-c3ccccc3-c3nnn[nH]3)cc1)C(=O)CCCC2 | inactive: -0.785 | inactive: 0.582 | inactive: 0.312
4 | COc1ccc(C2CC(c3ccncc3)C(C)(C)N2)cc1 (centres undefined) | inactive: -0.795 | inactive: -0.0151 | inactive: 2.59
5 | O=C(NCC1CC1)c1ccc2nccn2c1 | inactive: 0.286 |  | inactive: -1.76
6 | NCCNc1nonc1/C(=N/O)Nc1ccc(F)c(Br)c1 | inactive: 0.0111 | inactive: -1.72 | inactive: -0.531
7 | O=C([O-])CC(O)(C(=O)[O-])C(O)C(=O)[O-] (centres undefined) [Garcinia acid] | inactive: -1.09 | inactive: 1.37 | inactive: -1.54
8 | CN(C(=O)CO)c1c(I)c(C(=O)NCC(O)CO)c(I)c(C(=O)NCC(O)CO)c1I (centres undefined) [iomeprol] | inactive: 0.161 | inactive: 0.736 | inactive: -0.826
9 | CCNC(=O)[C@H]1C[C@@](F)(c2ccc(CN3CCCC3)c(F)c2)C1 | inactive: -0.0263 | inactive: -1.23 | inactive: 2.41
10 | CC(=O)[C@@]1(C)CC[C@H]2[C@@H]3C=C(C)C4=CC(=O)CC[C@]4(C)[C@H]3CC[C@@]21C | inactive: 1.19 | inactive: 1.94 | inactive: 2.3
11 | CCCC(=O)O[C@]1(C(=O)COC(C)=O)CC[C@H]2[C@@H]3C[C@H](F)C4=CC(=O)C=C[C@]4(C)[C@@]3(F)[C@@H](O)C[C@@]21C [difluprednate] | inactive: -1.44 | inactive: 3.03 | inactive: 1.9
12 | CC(C)(CC1Cc2ccccc2C1)NC[C@@H](O)COc1cc(CCC(=O)O)cc(F)c1F [ronacaleret hydrochloride] | inactive: 0.124 | inactive: -0.417 | inactive: 0.161
13 | COc1ccccc1-c1nc(Nc2ccccc2)cn1-c1ccccc1OC | inactive: 1.09 | inactive: -0.589 | inactive: 1.01
14 | C[C@]12C=CC(=O)N[C@@H]1CC[C@@H]1[C@@H]2CC[C@]2(C)[C@@H](C(=O)Nc3cc(C(F)(F)F)ccc3C(F)(F)F)CC[C@@H]12 [dutasteride] | inactive: -1.64 | inactive: 2.78 | inactive: 3.07
15 | CCOC(=O)C(CCCC1Cc2ccccc2O1)N[C@@H](C)C(=O)N1CCC[C@H]1C(=O)O (some centres undefined) | inactive: -0.1 | inactive: 0.614 | inactive: 0.2

Among those listed so far, these have an aryl methoxy group.
Row | Compound | TEAD-luciferase reporter activity (compound concentration: 200 nM) | TEAD-luciferase reporter activity (compound concentration: 2 uM) | TEAD-luciferase reporter activity (compound concentration: 10 uM)
4 | COc1ccc(C2CC(c3ccncc3)C(C)(C)N2)cc1 (centres undefined) | inactive: -0.795 | inactive: -0.0151 | inactive: 2.59
13 | COc1ccccc1-c1nc(Nc2ccccc2)cn1-c1ccccc1OC | inactive: 1.09 | inactive: -0.589 | inactive: 1.01

From the supplement of paper PMC10735217
